# Source: the supplement of paper PMC8728848
# This is one part of the list.
# B1: Pwp1 (Candida glabrata) (protein)
# chain: MGSSHHHHHHSSGLVPRGSHMASANPISITNVCQFPDNWARTAGFQATTVRLGLTIASNTYKELLNYPGLFNFATQKATVTQPNFSISGFPFFTGLYGLTVWPINLLVELQGYFVPPESGNYTFTLQGSDDAAILFFANPSTFACGSQNDWPQPREADITVTDTLVPSRTLYLVKGVAYPIRIAYYNGSGDGKLNVSFKDPSGTTHTDWKGYVWQYSNTCSTCTYT
# Columns and labels:
# Experiment in all cases: glycan array binding signal (z-score within array); higher = stronger binding
# Settings in all cases: glycan notation: IUPAC condensed, linker removed
# Fuc(a1-2)Gal = biological target: Fuc(a1-2)Gal
# How it was run: (§1)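 Glycan array data came from 3228 arrays in the Consortium for Functional Glycomics database, and only arrays with an available protein sequence were kept. Glycan names were put into IUPAC-condensed notation, and columns mapping to the same glycan were averaged. The binding signal is a within-array Z-score, averaged across arrays of one protein sequence run at different concentrations or buffers and across linkers. A negative Z-score can be read as non-binding.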
# Fuc(a1-2)Gal(b1-3)GalNAc = biological target: Fuc(a1-2)Gal(b1-3)GalNAc
# How it was run: as §1
# [1] = biological target: Fuc(a1-2)Gal(b1-3)GalNAc(a1-3)[Fuc(a1-2)]Gal(b1-4)Glc
# How it was run: as §1
# [2] = biological target: Fuc(a1-2)Gal(b1-3)GalNAc(a1-3)[Fuc(a1-2)]Gal(b1-4)GlcNAc
# How it was run: as §1
# [3] = biological target: Fuc(a1-2)Gal(b1-3)GalNAc(b1-3)Gal
# How it was run: as §1
# [4] = biological target: Fuc(a1-2)Gal(b1-3)GalNAc(b1-3)Gal(a1-4)Gal(b1-4)Glc
# How it was run: as §1
# [5] = biological target: Fuc(a1-2)Gal(b1-3)GalNAc(b1-4)[Neu5Ac(a2-3)]Gal(b1-4)Glc
# How it was run: as §1
# Fuc(a1-2)Gal(b1-3)GlcNAc = biological target: Fuc(a1-2)Gal(b1-3)GlcNAc
# How it was run: as §1
# [6] = biological target: Fuc(a1-2)Gal(b1-3)GlcNAc(b1-2)Man(a1-3)[Fuc(a1-2)Gal(b1-3)GlcNAc(b1-2)Man(a1-6)]Man(b1-4)GlcNAc(b1-4)GlcNAc
# How it was run: as §1
# [7] = biological target: Fuc(a1-2)Gal(b1-3)GlcNAc(b1-2)Man(a1-3)[Fuc(a1-2)Gal(b1-3)GlcNAc(b1-2)Man(a1-6)]Man(b1-4)GlcNAc(b1-4)[Fuc(a1-6)]GlcNAc
# How it was run: as §1
# [8] = biological target: Fuc(a1-2)Gal(b1-3)GlcNAc(b1-3)Gal(b1-4)Glc
# How it was run: as §1
# [9] = biological target: Fuc(a1-2)Gal(b1-3)GlcNAc(b1-3)GalNAc
# How it was run: as §1
# [10] = biological target: Fuc(a1-2)Gal(b1-3)GlcNAc(b1-3)[Fuc(a1-2)Gal(b1-3)GlcNAc(b1-6)]GalNAc
# How it was run: as §1
# [11] = biological target: Fuc(a1-2)Gal(b1-3)GlcNAc(b1-3)[Gal(b1-4)GlcNAc(b1-6)]Gal(b1-4)Glc
# How it was run: as §1
# [12] = biological target: Fuc(a1-2)Gal(b1-3)GlcNAc(b1-3)[Neu5Ac(a2-6)Gal(b1-4)GlcNAc(b1-6)]Gal(b1-4)Glc
# How it was run: as §1
# [13] = biological target: Fuc(a1-2)Gal(b1-3)GlcNAc6S
# How it was run: as §1
# [14] = biological target: Fuc(a1-2)Gal(b1-3)[Fuc(a1-4)]GlcNAc
# How it was run: as §1
# [15] = biological target: Fuc(a1-2)Gal(b1-3)[Fuc(a1-4)]GlcNAc(b1-2)Man(a1-3)[Fuc(a1-2)Gal(b1-3)[Fuc(a1-4)]GlcNAc(b1-2)Man(a1-3)]Man(b1-4)GlcNAc(b1-4)GlcNAc
# How it was run: as §1
# [16] = biological target: Fuc(a1-2)Gal(b1-3)[Fuc(a1-4)]GlcNAc(b1-2)Man(a1-3)[Fuc(a1-2)Gal(b1-3)[Fuc(a1-4)]GlcNAc(b1-2)Man(a1-6)]Man(b1-4)GlcNAc(b1-4)[Fuc(a1-6)]GlcNAc(b1-4)[Fuc(a1-6)]GlcNAc
# How it was run: as §1
# [17] = biological target: Fuc(a1-2)Gal(b1-3)[Fuc(a1-4)]GlcNAc(b1-3)[Fuc(a1-3)[Gal(b1-4)]GlcNAc(b1-6)]Gal(b1-4)Glc
# How it was run: as §1
# [18] = biological target: Fuc(a1-2)Gal(b1-3)[Fuc(a1-4)]GlcNAc(b1-3)[Gal(b1-4)GlcNAc(b1-6)]Gal(b1-4)Glc
# How it was run: as §1
# Fuc(a1-2)Gal(b1-4)Glc = biological target: Fuc(a1-2)Gal(b1-4)Glc
# How it was run: as §1
# Fuc(a1-2)Gal(b1-4)Glc6S = biological target: Fuc(a1-2)Gal(b1-4)Glc6S
# How it was run: as §1
# Fuc(a1-2)Gal(b1-4)GlcNAc = biological target: Fuc(a1-2)Gal(b1-4)GlcNAc
# How it was run: as §1
# [19] = biological target: Fuc(a1-2)Gal(b1-4)GlcNAc(b1-2)Man
# How it was run: as §1
# [20] = biological target: Fuc(a1-2)Gal(b1-4)GlcNAc(b1-2)Man(a1-3)[Fuc(a1-2)Gal(b1-4)GlcNAc(b1-2)Man(a1-6)]Man(b1-4)GlcNAc(b1-4)GlcNAc
# How it was run: as §1
# [21] = biological target: Fuc(a1-2)Gal(b1-4)GlcNAc(b1-2)Man(a1-3)[Fuc(a1-2)Gal(b1-4)GlcNAc(b1-2)Man(a1-6)]Man(b1-4)GlcNAc(b1-4)[Fuc(a1-6)]GlcNAc
# How it was run: as §1
# [22] = biological target: Fuc(a1-2)Gal(b1-4)GlcNAc(b1-2)[Fuc(a1-2)Gal(b1-4)GlcNAc(b1-4)]Man(a1-3)[Fuc(a1-2)Gal(b1-4)GlcNAc(b1-2)Man(a1-6)]Man(b1-4)GlcNAc(b1-4)GlcNAc
# How it was run: as §1
# [23] = biological target: Fuc(a1-2)Gal(b1-4)GlcNAc(b1-3)Gal(b1-4)GlcNAc
# How it was run: as §1
# [24] = biological target: Fuc(a1-2)Gal(b1-4)GlcNAc(b1-3)Gal(b1-4)GlcNAc(b1-2)Man(a1-3)[Fuc(a1-2)Gal(b1-4)GlcNAc(b1-3)Gal(b1-4)GlcNAc(b1-2)Man(a1-6)]Man(b1-4)GlcNAc(b1-4)GlcNAc
# How it was run: as §1
binder,measurement,setting,value
B1,glycan array binding signal (z-score),Fuc(a1-2)Gal,-0.395
same,glycan array binding signal (z-score),Fuc(a1-2)Gal(b1-3)GalNAc,0.522
same,glycan array binding signal (z-score),[1],0.159
same,glycan array binding signal (z-score),[2],-0.858
same,glycan array binding signal (z-score),[3],0.137
same,glycan array binding signal (z-score),[4],0.24
same,glycan array binding signal (z-score),[5],2.14
same,glycan array binding signal (z-score),Fuc(a1-2)Gal(b1-3)GlcNAc,0.372
same,glycan array binding signal (z-score),[6],-1.87
same,glycan array binding signal (z-score),[7],-0.078
same,glycan array binding signal (z-score),[8],-0.089
same,glycan array binding signal (z-score),[9],0.459
same,glycan array binding signal (z-score),[10],-2.13
same,glycan array binding signal (z-score),[11],-0.944
same,glycan array binding signal (z-score),[12],0.925
same,glycan array binding signal (z-score),[13],0.319
same,glycan array binding signal (z-score),[14],0.731
same,glycan array binding signal (z-score),[15],0.443
same,glycan array binding signal (z-score),[16],0.886
same,glycan array binding signal (z-score),[17],0.622
same,glycan array binding signal (z-score),[18],0.973
same,glycan array binding signal (z-score),Fuc(a1-2)Gal(b1-4)Glc,0.089
same,glycan array binding signal (z-score),Fuc(a1-2)Gal(b1-4)Glc6S,-0.871
same,glycan array binding signal (z-score),Fuc(a1-2)Gal(b1-4)GlcNAc,0.296
same,glycan array binding signal (z-score),[19],0.71
same,glycan array binding signal (z-score),[20],0.122
same,glycan array binding signal (z-score),[21],0.843
same,glycan array binding signal (z-score),[22],0.988
same,glycan array binding signal (z-score),[23],1.09
same,glycan array binding signal (z-score),[24],-1.11

# Given with bars between the fields: entries from further up
binder | measurement | setting | value
B1 | glycan array binding signal (z-score) | [12] | 0.925
same | glycan array binding signal (z-score) | [13] | 0.319
same | glycan array binding signal (z-score) | [14] | 0.731
same | glycan array binding signal (z-score) | [15] | 0.443
same | glycan array binding signal (z-score) | [16] | 0.886
same | glycan array binding signal (z-score) | [17] | 0.622
same | glycan array binding signal (z-score) | [18] | 0.973
same | glycan array binding signal (z-score) | Fuc(a1-2)Gal(b1-4)Glc | 0.089
